7 substances from PMC7596997 can be followed below.

The chains behind the UniProt entries cited, without tags or fusion partners. Where a name states a change or a piece, a line headed by the entry shows the natural chain unless it says otherwise.
UniProt P02723: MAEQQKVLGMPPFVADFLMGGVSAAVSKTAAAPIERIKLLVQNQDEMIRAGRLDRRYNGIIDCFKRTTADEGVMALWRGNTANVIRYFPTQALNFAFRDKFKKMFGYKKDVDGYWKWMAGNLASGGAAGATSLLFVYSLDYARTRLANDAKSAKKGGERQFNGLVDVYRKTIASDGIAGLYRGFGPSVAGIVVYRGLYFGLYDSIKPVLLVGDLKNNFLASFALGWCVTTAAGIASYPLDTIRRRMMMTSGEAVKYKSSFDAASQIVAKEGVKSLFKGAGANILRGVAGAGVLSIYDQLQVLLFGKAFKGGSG

Residue numbers refer to the chain shown, from its start. These are yes or no findings as the source states them, for the method shown. In cells and extracts the contact can be indirect. Some results given as binding are weak or reduced against the parent protein; the word gives no strength. Tags and fused reporters may be left off the sequences shown.

Holding throughout (assay): pull-down; purified His-Tom70cd (50 pmol per 100 μl) pre-bound to Ni-NTA beads, incubated 40 min at 30 °C with typically 7% (v/v) reticulocyte lysate containing the [35S]-labelled protein; 10 mM MOPS/KOH, 20 mM imidazole, 150 mM KCl, 1% BSA, pH 7.2; eluted with 1 M imidazole, SDS-PAGE, phosphorimager; in some samples the bead-bound Tom70cd was pretreated with NEM and washed before the lysate was added; only the target purified

The target in assay [1] is T1, cytosolic domain of yeast Tom70 (His-Tom70_(38–617)) (yeast (Saccharomyces cerevisiae)) (UniProt P07213).
T1 sequence: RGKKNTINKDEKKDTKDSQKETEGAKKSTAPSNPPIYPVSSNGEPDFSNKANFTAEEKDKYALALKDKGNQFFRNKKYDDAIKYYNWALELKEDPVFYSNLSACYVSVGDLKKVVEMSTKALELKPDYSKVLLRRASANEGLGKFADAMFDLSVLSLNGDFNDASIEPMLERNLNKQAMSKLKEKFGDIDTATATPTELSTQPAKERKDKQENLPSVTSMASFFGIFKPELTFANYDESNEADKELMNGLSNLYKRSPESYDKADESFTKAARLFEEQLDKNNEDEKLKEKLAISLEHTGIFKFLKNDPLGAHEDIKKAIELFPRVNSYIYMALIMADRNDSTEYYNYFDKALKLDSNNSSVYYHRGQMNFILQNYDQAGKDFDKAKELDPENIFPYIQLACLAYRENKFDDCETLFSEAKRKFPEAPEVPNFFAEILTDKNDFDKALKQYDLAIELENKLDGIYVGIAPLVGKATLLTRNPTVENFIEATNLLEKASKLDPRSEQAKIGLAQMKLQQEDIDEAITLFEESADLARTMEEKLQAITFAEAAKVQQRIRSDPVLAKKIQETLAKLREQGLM

Assay [2] deals with T2, Tom70cd C439A pretreated with NEM (yeast (Saccharomyces cerevisiae)) (UniProt P07213).
T2 sequence (chain, treated with 2 mM N-ethylmaleimide): T1 sequence with C402A

For assay [3], the target named is T3, Tom70cd C439A (yeast (Saccharomyces cerevisiae)) (UniProt P07213).
T3 sequence: T1 sequence with C402A

For assay [4], the target named is T4, Tom70cd C450A pretreated with NEM (yeast (Saccharomyces cerevisiae)) (UniProt P07213).
T4 sequence (chain, treated with 2 mM N-ethylmaleimide): T1 sequence with C413A

In assay [5] the target is T5, Tom70cd C141A pretreated with NEM (yeast (Saccharomyces cerevisiae)) (UniProt P07213).
T5 sequence (chain, treated with 2 mM N-ethylmaleimide): T1 sequence with C104A

Assay [6] has as its target T6, Tom70_(ΔGlu) (E473Q/E542Q/E577Q), cytosolic domain (yeast (Saccharomyces cerevisiae)) (UniProt P07213).
T6 sequence: T1 sequence with E436Q, E505Q, E540Q

The target in assay [7] is T7, Tom70cd C141A (yeast (Saccharomyces cerevisiae)) (UniProt P07213).
T7 sequence: T1 sequence with C104A

For assay [8], the target named is T8, Tom70cd C450A (yeast (Saccharomyces cerevisiae)) (UniProt P07213).
T8 sequence: T1 sequence with C413A

Regarding “AAC module I fused to DHFR (from UniProt P02723 10-100) (domain or fragment)”, the binding entry in assay [1] is listed as “binds”.

For the substance “AAC module II fused to DHFR (from UniProt P02723 117-206) (domain or fragment)”, the binding result in assay [1] was “binds”.

Take “AAC module III fused to DHFR (from UniProt P02723 216-305) (domain or fragment)”: in assay [1], the binding result is given as “binds”.

For the substance “ADP/ATP carrier (AAC) of Neurospora crassa, wild type (from UniProt P02723 1-313)”, the binding entry in assay [2], in assay [3], in assay [4], in assay [5], in assay [6] and in assay [7] was “binds” throughout. Besides, in assay [8], the binding entry is reported as “binds”.

In the case of “ML3-DHFR (matrix loop of AAC module III, residues 238–277, fused to DHFR) (from UniProt P02723 238-277) (domain or fragment)”, the binding result in assay [1] was “no binding (tested: < 1%)”.

For the substance “ML3-TMD6-DHFR (C-terminal part of AAC module III including the matrix loop and helix 6, residues 238–313, fused to DHFR) (from UniProt P02723 238-313) (domain or fragment)”, the binding entry in assay [1] is reported as “binds”.

“TMD6-DHFR (AAC helix 6, residues 277–313, fused to DHFR) (from UniProt P02723 277-313) (domain or fragment)”: the binding entry in assay [1] is reported as “binds”.
